Measured values reported in patent US5156956A, “Transgultaminase” (Ajinomoto Co., Inc., priority 1987, dated 1992).
At least one structure is not confirmed: it was looked up by name or label, or the drawing left a doubt.

Target: T1, MTGase (transglutaminase of guinea pig liver) (UniProt P08587)
T1 construct: from tissue; host or cells: guinea pig liver
T1 sequence (P08587 1-690): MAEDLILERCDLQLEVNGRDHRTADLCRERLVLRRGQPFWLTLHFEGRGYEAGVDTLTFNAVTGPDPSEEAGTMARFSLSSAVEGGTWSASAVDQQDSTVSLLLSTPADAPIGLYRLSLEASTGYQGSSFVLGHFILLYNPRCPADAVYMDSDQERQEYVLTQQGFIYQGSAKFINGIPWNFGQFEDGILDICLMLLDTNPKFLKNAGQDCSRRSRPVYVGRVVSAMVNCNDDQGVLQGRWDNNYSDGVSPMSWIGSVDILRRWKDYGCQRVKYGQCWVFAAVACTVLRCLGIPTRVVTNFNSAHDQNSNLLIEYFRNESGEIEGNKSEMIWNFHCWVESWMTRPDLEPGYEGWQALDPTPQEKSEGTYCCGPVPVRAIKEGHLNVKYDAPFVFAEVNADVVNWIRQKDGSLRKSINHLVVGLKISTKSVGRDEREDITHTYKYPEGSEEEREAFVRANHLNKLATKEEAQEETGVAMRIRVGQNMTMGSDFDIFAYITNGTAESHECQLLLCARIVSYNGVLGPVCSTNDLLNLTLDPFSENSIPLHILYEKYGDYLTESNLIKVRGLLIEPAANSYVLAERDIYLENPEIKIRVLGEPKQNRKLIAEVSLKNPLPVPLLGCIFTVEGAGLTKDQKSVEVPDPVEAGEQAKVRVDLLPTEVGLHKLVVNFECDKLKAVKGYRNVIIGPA
Experiment: Influence of Ca2+ on activity
Assay type: biochemical

[Ca+2].[Cl-].[Cl-] [CaCl2]
MTGase (%) activity (1 mM CaCl2): 39%
MTGase (%) activity (5 mM CaCl2): 100%
